Data as given in PubChem BioAssay AID602196 (INSERM, 2012).
This is an unselected part of about 23,000 reagents. 455 of them (2%) were called active. 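Active includes both protection and sensitisation; some change values fall well beyond the stated -50 to +50 range.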 Not given: the amount of reagent.

- Assay: 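Genes whose knock-down alters cisplatin killing of lung cancer cells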
- Cells: human A549 lung cancer cells
- Reagents: siRNA pair against human genes
- Timing: 48 h transfection before cisplatin; time from cisplatin to read-out not stated
- Challenge: cisplatin at a dose killing half of control-siRNA cells; exact dose and duration not given
- Measurement: 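Shift in cisplatin death relative to control siRNA, from -50 (all cells die) to +50 (no cells die); siRNAs harmful on their own scored 0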
- Reading the numbers: two-siRNA summed score (-2 to +2): higher = both siRNAs protect from cisplatin killing; -2 means both sensitise; mean protection from cisplatin (shift in death) and protection from cisplatin (shift in death), siRNA C and protection from cisplatin (shift in death), siRNA D: higher = protection from cisplatin killing
- Active means: 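siRNAs harmful alone (LDH or WST-1) get 0; others get +1 for less and -1 for more cisplatin killing; genes are active when the two siRNAs give the same sign, summing to ±2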
- Calls: active = both siRNAs shift cisplatin killing the same way; inactive = no consistent shift, or siRNA harmful alone

gene knocked down | PubChem SID | two-siRNA summed score (-2 to +2) | mean protection from cisplatin (shift in death) (%) | protection from cisplatin (shift in death), siRNA C (%) | protection from cisplatin (shift in death), siRNA D (%) | outcome
UGGT1 | SID131507306 | 0 | -0.3 | -8.8 | 8.2 | inactive
ACYP1 | SID131514948 | 0 | 8.5 | 13.9 | 3.1 | inactive
ANKRD36 | SID131503966 | 0 | -7 | -8.7 | -5.3 | inactive
LOC441574 | SID131508312 | 0 | 0.9 | -3.2 | 5.1 | inactive
ABCB11 | SID131517391 | 0 | 13.3 | 6 | 20.6 | inactive
CDPF1 | SID131502772 | -1 | 9.2 | 32.5 | -14.1 | inactive
DHCR7 | SID131502989 | 0 | -16.5 | 3.3 | -36.2 | inactive
TOPORS | SID131500327 | -2 | -23.3 | -20.1 | -26.4 | active
LOC388015 | SID131519510 | 1 | 6 | 18.6 | -6.6 | inactive
ECRG4 | SID131505858 | 0 | -2.5 | 8.2 | -13.1 | inactive
KAT2A | SID131503642 | 0 | -8.7 | -11.8 | -5.6 | inactive
ZNF623 | SID131519540 | 1 | 6.2 | 4.9 | 7.5 | inactive
LMTK2 | SID131507003 | 0 | -0.7 | 6.9 | -8.2 | inactive
LANCL2 | SID131503954 | 0 | -7.1 | -8.5 | -5.6 | inactive
DAB1 | SID131516474 | 0 | 10.9 | 18.9 | 2.9 | inactive
BAIAP2L2 | SID131504037 | 0 | -6.7 | -4.4 | -9.1 | inactive
LOC440947 | SID131515207 | 0 | 8.8 | 5.4 | 12.3 | inactive
ST6GALNAC5 | SID131504871 | 0 | -4.3 | -7.8 | -0.8 | inactive
DNAJC11 | SID131506502 | 0 | -1.4 | -7.5 | 4.7 | inactive
HAPLN3 | SID131508977 | 0 | 1.7 | 2.8 | 0.5 | inactive
LOC441733 | SID131517907 | 0 | 15.3 | 7.6 | 23.1 | inactive
GUSB | SID131501304 | -1 | -10.7 | -11.1 | -10.2 | inactive
RNF114 | SID131510536 | 0 | 3.4 | 4.6 | 2.1 | inactive
SFRP1 | SID131513196 | 0 | 6.3 | 5.8 | 6.9 | inactive
LOC442658 | SID131514461 | 0 | 7.8 | 14.7 | 1 | inactive
SELENOK | SID131506897 | 0 | -0.8 | -8.4 | 6.8 | inactive
IGSF1 | SID131518276 | 0 | 17.8 | 20.2 | 15.4 | inactive
F8A1 | SID131504839 | 0 | -4.4 | -2.4 | -6.3 | inactive
LOC402152 | SID131509356 | 0 | 2.1 | 5.1 | -1 | inactive
LOC442620 | SID131511087 | 0 | 4 | 0.5 | 7.4 | inactive
BLTP3A | SID131505996 | 0 | -2.2 | -2.1 | -2.3 | inactive
LOC441309 | SID131508670 | 0 | 1.3 | 7.7 | -5.1 | inactive
KLRC3 | SID131515455 | 0 | 9.2 | 20.6 | -2.2 | inactive
BSDC1 | SID131506203 | 0 | -1.9 | -3.6 | -0.1 | inactive
LOC402693 | SID131514407 | 0 | 7.8 | 6.7 | 8.9 | inactive
CWF19L2 | SID131510104 | 0 | 2.9 | 7.3 | -1.5 | inactive
CER1 | SID131518925 | 1 | -4.2 | 22.8 | -31.3 | inactive
SYCE1 | SID131512050 | 0 | 5.1 | 3.4 | 6.7 | inactive
MEP1B | SID131516742 | 0 | 11.5 | 16.8 | 6.3 | inactive
LOC441388 | SID131508707 | 0 | 1.4 | -1.5 | 4.2 | inactive
LOC400987 | SID131515929 | 0 | 9.9 | 4.3 | 15.5 | inactive
B4GALNT2 | SID131518405 | 0 | 19.3 | 17.8 | 20.8 | inactive
LOC391162 | SID131502674 | -1 | 1.8 | -14.9 | 18.6 | inactive
CATSPERT | SID131506606 | 0 | -1.2 | -2.5 | 0 | inactive
XKR6 | SID131512266 | 0 | 5.3 | 6.4 | 4.2 | inactive
XKR6 | SID131520687 | 1 | 10.8 | 18.9 | 2.8 | inactive
CETP | SID131506319 | 0 | -1.7 | -9 | 5.6 | inactive
LOC440137 | SID131515466 | 0 | 9.2 | 10.5 | 7.9 | inactive
KCNN4 | SID131508215 | 0 | 0.8 | -10 | 11.6 | inactive
ZNF664 | SID131523080 | 2 | 19.1 | 20.3 | 17.9 | active
TTK | SID131505890 | 0 | -2.4 | -3.2 | -1.6 | inactive
NKX6-1 | SID131509787 | 0 | 2.5 | 16.5 | -11.4 | inactive
FBXW5 | SID131518516 | 0 | 20.8 | 24.6 | 17 | inactive
PTH | SID131507518 | 0 | 0 | 0.8 | -0.9 | inactive
LOC120376 | SID131519635 | 1 | 6.7 | 25.3 | -11.8 | inactive
PRR4 | SID131514316 | 0 | 7.6 | -4.8 | 20.1 | inactive
TRANK1 | SID131515500 | 0 | 9.3 | 8.4 | 10.1 | inactive
FLJ32810 | SID131510039 | 0 | 2.8 | 5.8 | -0.2 | inactive
LOC151363 | SID131512289 | 0 | 5.3 | 10.4 | 0.2 | inactive
BDNF | SID131506565 | 0 | -1.3 | -1.9 | -0.7 | inactive
SPATC1 | SID131516153 | 0 | 10.3 | 22.9 | -2.2 | inactive
OR1E1 | SID131510473 | 0 | 3.3 | 23.9 | -17.3 | inactive
LOC389217 | SID131513303 | 0 | 6.4 | 4.4 | 8.4 | inactive
CYP2C8 | SID131503796 | 0 | -7.8 | -12.7 | -2.9 | inactive
ZNF214 | SID131519803 | 1 | 7.5 | 5.4 | 9.7 | inactive
TMEM43 | SID131513480 | 0 | 6.6 | 6.6 | 6.7 | inactive
IFITM3P7 | SID131519712 | 1 | 7.1 | 10.3 | 3.9 | inactive
PCLAF | SID131511876 | 0 | 4.9 | -6.7 | 16.4 | inactive
MCMDC2 | SID131516557 | 0 | 11.1 | 16.3 | 5.9 | inactive
PDK2 | SID131506186 | 0 | -1.9 | -7.8 | 4 | inactive
MPHOSPH6 | SID131520571 | 1 | 10.3 | 6.9 | 13.7 | inactive
NKX2-1 | SID131506804 | 0 | -1 | 2.6 | -4.5 | inactive
HNRNPCL2 | SID131516359 | 0 | 10.7 | 15.4 | 6.1 | inactive
